Results are given in words; binding and its absence hold for the method and conditions named. Some results given as binding are weak or reduced against the parent protein; the word gives no strength.
Key:
[1] = biological target: T1, IL-1RAP expressed at the cell surface of human cells (human), Q9NPH3; assay: FACS screening of hybridoma subclones on IL-1RAP-positive and -negative cell lines; conditions: remark: other sources report otherwise
[2] = biological target: T1, IL-1RAP expressed at the cell surface …; assay: cell surface staining (flow cytometry) of AML cell lines; the same paragraph also reports a western blot signal with #A3C3; conditions: remark: other sources report otherwise

- binding [1]: binds
- binding [2]: binds
B1: mouse anti-hIL-1RAP monoclonal antibody, clone #E3C3 (antibody, V domains shown)
VH: QVQLQQPGAELMMPGASVKVSCEASGYTFTDSWMHWVKQRPGQGLEWIGAIDPSDSYTTYNQKFTGKATLSVDESSNTAYMQLSSLTSEDSAVYYCARYYSGSNYISPFPYWGQGTLVTVSA
VL: DIVMTQSHKFMSTSVGDRVTITCKASLDVSTAVAWYQQKPGQSPKLLIYSASYRYTGVPDRFTGSGSGTDFTFTISSVQAEDLAVYYCQQHYSPPFTFGSGTNLEIK
